Record: PubChem BioAssay AID1053208 (Peter MacCallum Cancer Centre, 2014)

Aim: 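Find knock-downs that sensitise mouse osteosarcoma cells to doxorubicin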 (primary screen)
Cells: mouse osteosarcoma cells, early-passage culture from an engineered mouse model of fibroblastic bone tumour
Reagents: siRNA pool against mouse genes, 40 nM
Timing: about 120 h (48 h before drug, then 72 h with drug)
Conditions: doxorubicin 100 nM for 72 h, roughly 30-40% inhibitory dose
Measured: 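Viability read as ATP luminescence after 72 h of 100 nM doxorubicin or none, duplicate wells averaged, scaled to non-targeting siRNA, then expressed as robust z-scores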
Scale: viability z-score with doxorubicin: higher = more viable cells under doxorubicin; viability z-score without drug: higher = more viable cells with knock-down alone
Active means: 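a pool counts as active when its viability z-score with doxorubicin is -2 or below and its z-score without drug lies between -2 and 2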
The deposit covers about 17,000 reagents; below is an unselected part. 788 of all reagents (4.7%) count as active. 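Calls rest on z-score classes alone; an extra cut-off of viability at most 70% of control was not applied to them.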 The numbers tell different reagents against one gene apart. A reagent listed more than once was tested more than once; the source does not tell the runs apart. Not all columns of the deposit are shown.

| target gene | reagent no. | combined z-score class | viability z-score with doxorubicin | viability z-score without drug | outcome |
| --- | --- | --- | --- | --- | --- |
| Znf41-ps (ZNF41, pseudogene) | 1 | high cell count without drug only | -0.9 | 2.87 | inactive |
| Akr1b8 (aldo-keto reductase family 1, member B8) | 1 | no change with or without drug | -1.57 | -0.17 | inactive |
| Wdr11 (WD repeat domain 11) | 1 | no change with or without drug | -0.45 | 0.34 | inactive |
| Ppt1 (palmitoyl-protein thioesterase 1) | 1 | no change with or without drug | 0.67 | 1.35 | inactive |
| Ppt1 (palmitoyl-protein thioesterase 1) | 2 | no change with or without drug | 0 | -0.51 | inactive |
| 4932407I05 | 1 | high cell count with and without drug | 2.02 | 2.36 | inactive |
| Rlbp1 (retinaldehyde binding protein 1) | 1 | high cell count without drug only | 1.12 | 2.87 | inactive |
| Tacc3 (transforming, acidic coiled-coil containing protein 3) | 1 | low cell count without drug only | -0.67 | -3.54 | inactive |
| Dcn (decorin) | 1 | high cell count with and without drug | 2.25 | 2.19 | inactive |
| Mdk (midkine) | 1 | no change with or without drug | 0.67 | 0.17 | inactive |
| Scaper (S phase cyclin A-associated protein in the ER) | 1 | no change with or without drug | 0.9 | 1.52 | inactive |
| Nucks1 | 1 | high cell count with doxorubicin only | 2.02 | 0.51 | inactive |
| Ikbkg (inhibitor of kappaB kinase gamma) | 1 | no change with or without drug | 1.35 | 0.51 | inactive |
| Pira4 (paired-Ig-like receptor A4) | 1 | no change with or without drug | 0.22 | 0.34 | inactive |
| Ajuba (ajuba LIM protein) | 1 | no change with or without drug | -0.34 | 0.51 | inactive |
| Ihh (Indian hedgehog) | 1 | no change with or without drug | 0.45 | 0.51 | inactive |
| Fbxl5 (F-box and leucine-rich repeat protein 5) | 1 | no change with or without drug | -0.9 | -0.34 | inactive |
| Pik3cb | 1 | no change with or without drug | 1.01 | 0.17 | inactive |
| Pik3cb | 1 | high cell count with doxorubicin only | 2.14 | -0.17 | inactive |
| Eif2s3x | 1 | no change with or without drug | -0.67 | -1.01 | inactive |
| A530021J07Rik (Riken cDNA A530021J07 gene) | 1 | low cell count with doxorubicin only | -2.7 | -1.01 | active |
| Polr1h (RNA polymerase I subunit H) | 1 | no change with or without drug | -0.67 | -0.17 | inactive |
| Cdk5rap1 (CDK5 regulatory subunit associated protein 1) | 1 | no change with or without drug | 1.57 | 0.17 | inactive |
| Or8b57 (olfactory receptor family 8 subfamily B member 57) | 1 | no change with or without drug | -0.79 | -0.51 | inactive |
| Zfp758 (zinc finger protein 758) | 1 | no change with or without drug | 0.34 | 0.17 | inactive |
| Or2d2 (olfactory receptor family 2 subfamily D member 2) | 1 | no change with or without drug | -1.35 | -0.84 | inactive |
| Ifit1 (interferon-induced protein with tetratricopeptide repeats 1) | 1 | no change with or without drug | -0.79 | -0.84 | inactive |
| Timm13 (translocase of inner mitochondrial membrane 13) | 1 | no change with or without drug | -0.22 | 0.17 | inactive |
| Rassf4 (Ras association (RalGDS/AF-6) domain family member 4) | 1 | high cell count without drug only | 0.9 | 2.53 | inactive |
| Nkx6-2 (NK6 homeobox 2) | 1 | no change with or without drug | -1.01 | -1.18 | inactive |
| Klra20 (killer cell lectin-like receptor subfamily A, member 20) | 1 | no change with or without drug | -0.45 | 0.51 | inactive |
| Aurka (aurora kinase A) | 1 | no change with or without drug | -0.56 | -1.18 | inactive |
| Slc51a | 1 | no change with or without drug | 0.11 | 1.85 | inactive |
| Muc13 (mucin 13, epithelial transmembrane) | 1 | no change with or without drug | 0.56 | -0.17 | inactive |
| Pip4k2a (phosphatidylinositol-5-phosphate 4-kinase, type II, alpha) | 1 | no change with or without drug | -0.22 | 0.34 | inactive |
| Cckar (cholecystokinin A receptor) | 1 | no change with or without drug | -1.01 | 0.51 | inactive |
| Or8g33 (olfactory receptor family 8 subfamily G member 33) | 1 | no change with or without drug | -1.35 | -0.84 | inactive |
| Fam24a (family with sequence similarity 24, member A) | 1 | no change with or without drug | -0.45 | 1.85 | inactive |
| A330015D16RIK | 1 | no change with or without drug | 0.45 | 0.17 | inactive |
| Cyp2c23 (cytochrome P450, family 2, subfamily c, polypeptide 23) | 1 | no change with or without drug | 0.67 | -1.18 | inactive |
| Oxct2a (3-oxoacid CoA transferase 2A) | 1 | no change with or without drug | -1.35 | 0.17 | inactive |
| Thumpd1 (THUMP domain containing 1) | 1 | no change with or without drug | 0.67 | -1.18 | inactive |
| Clcn3 (chloride channel, voltage-sensitive 3) | 1 | low cell count with doxorubicin only | -2.47 | -1.69 | active |
| Mrps6 (mitochondrial ribosomal protein S6) | 1 | no change with or without drug | 1.24 | 0 | inactive |
| Fam243 (family with sequence similarity 243) | 1 | no change with or without drug | -0.67 | 1.52 | inactive |
| Thada (thyroid adenoma associated) | 1 | no change with or without drug | 0.22 | 0.17 | inactive |
| Fshr (follicle stimulating hormone receptor) | 1 | no change with or without drug | -0.45 | 1.18 | inactive |
| A930025A13Rik (RIKEN cDNA A930025A13 gene) | 1 | no change with or without drug | 0.34 | -0.51 | inactive |
| Atp4a (ATPase, H+/K+ exchanging, gastric, alpha polypeptide) | 1 | no change with or without drug | -0.22 | -1.52 | inactive |
| Or5w15 (olfactory receptor family 5 subfamily W member 15) | 1 | no change with or without drug | -0.22 | -0.51 | inactive |

2 entries from above, set out differently:
{"target gene":"Or8g33 (olfactory receptor family 8 subfamily G member 33)","reagent no.":1,"combined z-score class":"no change with or without drug","viability z-score with doxorubicin":-1.35,"viability z-score without drug":-0.84,"outcome":"inactive"}
{"target gene":"Fam24a (family with sequence similarity 24, member A)","reagent no.":1,"combined z-score class":"no change with or without drug","viability z-score with doxorubicin":-0.45,"viability z-score without drug":1.85,"outcome":"inactive"}
